Measurements as given in publication PMC9684564.
No constants are given. Whether binding was seen depends on the method and setting. In cells and extracts the contact can be indirect. A yes stands for co-enrichment or nearness to the bait. Other partners may have been found.

By UniProt entry, the sequences of proteins in these tests, tags left out.
UniProt Q14974: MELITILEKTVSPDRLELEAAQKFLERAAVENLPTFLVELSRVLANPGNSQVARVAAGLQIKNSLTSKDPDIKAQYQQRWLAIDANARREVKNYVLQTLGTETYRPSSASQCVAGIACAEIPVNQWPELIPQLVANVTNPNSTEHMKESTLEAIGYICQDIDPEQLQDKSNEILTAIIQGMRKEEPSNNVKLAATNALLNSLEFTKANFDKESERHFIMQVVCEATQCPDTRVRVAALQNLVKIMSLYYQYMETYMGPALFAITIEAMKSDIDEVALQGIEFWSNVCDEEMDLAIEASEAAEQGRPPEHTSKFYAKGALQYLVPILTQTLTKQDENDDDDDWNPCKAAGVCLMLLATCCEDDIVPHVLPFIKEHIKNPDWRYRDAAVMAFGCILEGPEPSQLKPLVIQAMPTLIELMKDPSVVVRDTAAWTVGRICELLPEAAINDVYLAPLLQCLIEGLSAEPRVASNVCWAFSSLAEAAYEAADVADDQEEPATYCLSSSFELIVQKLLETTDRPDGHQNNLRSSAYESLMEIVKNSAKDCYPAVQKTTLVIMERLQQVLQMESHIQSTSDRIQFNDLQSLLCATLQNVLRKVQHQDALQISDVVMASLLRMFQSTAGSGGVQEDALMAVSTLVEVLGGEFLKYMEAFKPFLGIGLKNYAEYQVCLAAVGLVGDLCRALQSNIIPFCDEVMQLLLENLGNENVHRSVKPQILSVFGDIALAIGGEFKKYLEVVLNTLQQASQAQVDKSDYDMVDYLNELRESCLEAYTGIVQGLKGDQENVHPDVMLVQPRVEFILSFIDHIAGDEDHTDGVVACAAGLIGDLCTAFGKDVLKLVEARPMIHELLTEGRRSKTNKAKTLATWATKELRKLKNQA

B1: Splicing factor 1 (protein, UniProt Q15637 1-639)
chain: MATGANATPLDFPSKKRKRSRWNQDTMEQKTVIPGMPTVIPPGLTREQERAYIVQLQIEDLTRKLRTGDLGIPPNPEDRSPSPEPIYNSEGKRLNTREFRTRKKLEEERHNLITEMVALNPDFKPPADYKPPATRVSDKVMIPQDEYPEINFVGLLIGPRGNTLKNIEKECNAKIMIRGKGSVKEGKVGRKDGQMLPGEDEPLHALVTANTMENVKKAVEQIRNILKQGIETPEDQNDLRKMQLRELARLNGTLREDDNRILRPWQSSETRSITNTTVCTKCGGAGHIASDCKFQRPGDPQSAQDKARMDKEYLSLMAELGEAPVPASVGSTSGPATTPLASAPRPAAPANNPPPPSLMSTTQSRPPWMNSGPSESRPYHGMHGGGPGGPGGGPHSFPHPLPSLTGGHGGHPMQHNPNGPPPPWMQPPPPPMNQGPHPPGHHGPPPMDQYLGSTPVGSGVYRLHQGKGMMPPPPMGMMPPPPPPPSGQPPPPPSGPLPPWQQQQQQPPPPPPPSSSMASSTPLPWQQNTTTTTTSAGTGSIPPWQQQQAAAAASPGAPQMQGNPTMVPLPPGVQPPLPPGAPPPPPPPPPGSAGMMYAPPPPPPPPMDPSNFVTMMGMGVAGMPPFGMPPAPPPPPPQN
B2: Clathrin (CLTA) (protein, UniProt P09496 1-248)
chain: MAELDPFGAPAGAPGGPALGNGVAGAGEEDPAAAFLAQQESEIAGIENDEAFAILDGGAPGPQPHGEPPGGPDAVDGVMNGEYYQESNGPTDSYAAISQVDRLQSEPESIRKWREEQMERLEALDANSRKQEAEWKEKAIKELEEWYARQDEQLQKTKANNRVADEAFYKQPFADVIGYVTNINHPCYSLEQAAEEAFVNDIDESSPGTEWERVARLCDFNPKSSKQAKDVSRMRSVLISLKQAPLVH
B3: Heterogeneous nuclear ribonucleoprotein D-like (protein, UniProt O14979 1-420)
chain: MEVPPRLSHVPPPLFPSAPATLASRSLSHWRPRPPRQLAPLLPSLAPSSARQGARRAQRHVTAQQPSRLAGGAAIKGGRRRRPDLFRRHFKSSSIQRSAAAAAATRTARQHPPADSSVTMEDMNEYSNIEEFAEGSKINASKNQQDDGKMFIGGLSWDTSKKDLTEYLSRFGEVVDCTIKTDPVTGRSRGFGFVLFKDAASVDKVLELKEHKLDGKLIDPKRAKALKGKEPPKKVFVGGLSPDTSEEQIKEYFGAFGEIENIELPMDTKTNERRGFCFITYTDEEPVKKLLESRYHQIGSGKCEIKVAQPKEVYRQQQQQQKGGRGAAAGGRGGTRGRGRGQGQNWNQGFNNYYDQGYGNYNSAYGGDQNYSGYGGYDYTGYNYGNYGYGQGYADYSGQQSTYGKASRGGGNHQNNYQPY

target: Karyopherin beta 1 (human (endogenous in hTERT-RPE1, HeLa, WHCO5, KYSE30)) (UniProt Q14974); experiment: affinity purification with mass spectrometry; endogenous Kpnβ1 precipitated with 50 µg anti-Karyopherin β1 (H-7) agarose-conjugated antibody from 500 µg lysate of hTERT-RPE1, HeLa, WHCO5 or KYSE30 cells; non-denaturing lysis buffer (1% Triton X-100, 120 mM NaCl, 1 mM CaCl2, 25 mM Tris, pH 7.4); 4 °C overnight; no cross-linking; hits present in all three replicates and absent from the IgG isotype controls

binding, binds:
B1
B2
B3
